# Measured values from PubChem BioAssay AID1347423 (Functional Genomics Laboratory (NCATS/FGL), 2020).
# The campaign covered roughly 52,000 sequences. About 210 (0.4%) were called active.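 Rule for the calls: active = gene whose silencing raises cell survival under the drug, median off-target-corrected z-score across its silencing RNAs 2 or more; inactive = the rest.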 The list shows a part of the results.
# Test: Resistance to Poly (ADP-Ribose) Polymerase inhibitor: Gene Identification via Genome-wide siRNA Screen
# Conditions: mouse BRCA2 R2336H ES cells, olaparib, CellTiter-Glo viability; stronger effect = higher value
# Outline: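 Mouse BRCA2 R2336H ES cells were reverse-transfected with siRNA (20 nM final), treated at 48 h with 500 nM olaparib, and read by CellTiter-Glo after 72 h. Scores: MAD-based z per siRNA, median per gene, seed off-target correction.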
row,Sequence,z-score
1,GCUACAUGGCUAGAAUAGATT against Eif2s2,inactive: -0.516
2,CCGACUAAAGUGUUUAAUUTT against Pfkfb1,inactive: 0.358
3,GCACUAUGACUACAAGAGUTT against Olfr1457,inactive: -0.593
4,GGGAACCUCCUUGUGAACATT against Nlk,inactive: -1.6
5,GGCGUGAAAAUAGGAGAAUTT against Extl2,inactive: -1.53
6,GGCUGAAGAGGUUUUACGATT against D12Ertd553e,inactive: 1.84
7,CCUCUGCAUCUUGGCACCATT against BC010787,inactive: -2.22
8,GCCAAGUGACGAUCAACUATT against 2310051D06Rik,inactive: -0.739
9,GGGAAAAAUGGCCUUUCUGTT against 2410012C07Rik,inactive: 1.18
10,GGGUAAUGCAAAGAAAACATT against Dlc1,inactive: 0.839
11,GGACAUCAGUAUGAAUAAGTT against AI553587,inactive: -0.448
12,GGGUACAAGCUUAUCAAUATT against Trpm6,inactive: 0.137
13,GCUACAUGUACCAGACAAATT against Hspb7,inactive: -2.12
14,GGGACCUGAGGAAAACUGUTT against Ctdsp2,inactive: 0.413
15,GGGAGCUACUACCUAUGAUTT against Dio2,inactive: -1.48
16,CCUGGAUGUAGACUUCGCATT against Slc6a7,inactive: 1.23
17,CCAUGGGUACCUAUAUCGUTT against 5730466C23Rik,inactive: -0.833
18,GUCAUCUUGUUCCAUCUGATT against Olfr1269,inactive: 0.987
19,GGAUGACUUCUGUCUUCUUTT against AW491445,inactive: -0.349
20,CCCUGCAUUUGUCAAUUAUTT against Hnrpl,inactive: 0.422
21,GGUUUAUGGGACAGUUUUUTT against Plk2,inactive: 0.337
22,GGAAUUUGCUGCCCUCCUATT against Smad3,inactive: -2.09

row,Sequence,z-score
1,GGAAAUUUCAAGAGCAAGATT against Rras2,inactive: 1.67
2,GGGCUUCUAUUUGUUCCACTT against Lrfn5,inactive: -0.526
3,GCCCGUUCCUUUUAUGUAUTT against Klf3,inactive: -0.651
4,GGAACCAAGGAUGUGAAAGTT against Rab13,inactive: -0.614
5,GGAGGAGAAUGCCACAACUTT against 425O18-1,inactive: -2.02
6,GGAUGGUCAUAAGGAUCAATT against Gpr128,active: 2.66
7,GGGAAACUUCUUCAUGGGUTT against Dazap2,inactive: -0.172
8,GGGUAAUUAAAAAGGAAACTT against Nt5c2l1,inactive: 1.84
9,GGUGACUUUUUGGUACAGATT against Mthfr,inactive: -0.809
10,GGUGUAGGCUCCCUGACAUTT against C130046B21Rik,inactive: -0.361
11,GGUACUCCCGAUCUGCUAUTT against Rpl6,inactive: -3.16
12,GGUUAAGUGUGUUAAGUUCTT against 2310044G17Rik,inactive: 0.557
13,CGAAAAGAUAAGCCCUUAATT against Mphosph10,inactive: -1.06
14,GGUGUAACUGGGCUGCAUGTT against Avpi1,inactive: -0.882
15,GGAGAUAUCCUUUUGCUCUTT against Tbc1d1,inactive: 0.395
16,GUUCGCUGAACACGUCUUCTT against Hpcal1,inactive: -0.829
17,GCAUCAAGUCUGAGCGACUTT against Mef2b,inactive: -0.714
18,CCAGGCCAAAUCUCACAAUTT against A730008H23,inactive: 0.0605
19,GGAUCUCUACUUCUAUAAGTT against Kif27,inactive: -0.277
20,CGACCCUGACAGAAUACUCTT against 1810045K07Rik,inactive: -0.438
21,CCUUGCUCAAUGUUUUGGATT against Obscn,inactive: -0.721
22,GCCUACUCCCAAGAGGAAATT against Rai3,inactive: -0.191

# 2 successive records already listed, quoted:
row,Sequence,z-score
9,GGUGACUUUUUGGUACAGATT against Mthfr,inactive: -0.809
10,GGUGUAGGCUCCCUGACAUTT against C130046B21Rik,inactive: -0.361

# The list goes on:

row,Sequence,z-score
1,GGGAAAAUACACUAUUUGATT against D530031C13Rik,inactive: 1.23
2,GCCUUUCAAGAUUUGUGGGTT against Wdt2,inactive: -0.571
3,GCUAUAAGCUCAGGUUUGUTT against Osbpl10,inactive: -0.293
4,GCACCCUCUUUCAAGAAACTT against Olfr331,inactive: 1.56
5,GCCUCUUCAGAUGGACCUATT against Phemx,inactive: 0.0947
6,GGGUGAUCCCUGAAUAUUGTT against Arcn1,inactive: -1.79
7,CGAGAUUUUUCAUGAUGUGTT against Slc4a8,inactive: 0.333
8,CCAAACUAGGAGACAUAAUTT against Dhx38,inactive: 0.431
9,GGAUCUAUGGGUAUCCUGCTT against Adam1a,inactive: 0.143
10,CGUAUUUGUGGCAUAUUAGTT against Olfr1183,inactive: 0.353
11,GGAUAUCCUUCUGUCCAGUTT against Tyr,inactive: -0.0111
12,GCUCUCAAAAGUCCUUAGCTT against 2210018M11Rik,inactive: -0.309
13,GGACCUCAGCUUACCUAGCTT against 1300002K09Rik,inactive: 0.32
14,GGAAAUUGCUCAAAAAAGGTT against Asb3,inactive: 0.325
15,GGACAAGGCAAAGGCCUAUTT against Phka1,inactive: 1.78
16,UCACUGUACCAUUCAUAUGTT against Olfr50,inactive: 0.0614
17,AUGAUUCCCUACCAGAUCGTT against Pfdn4,inactive: -0.598
18,GGUCAUCUUCCGAUACUGUTT against Pspn,inactive: 0.712
19,GGCUAUAACCAGCCUCAUGTT against A730055C05Rik,inactive: -0.887
20,CCAGAUGCUAAAUCACUACTT against 1700019P01Rik,inactive: 1.43
21,GCACUUACUCCUUAACUCUTT against D19Ertd144e,inactive: -0.415
22,GGUCAUGAAAAAGCUAACCTT against Dppa3,inactive: -0.645
